The values below are quoted from earlier work in PMC8778678 (Viruses, 2022).

By EC50 is commonly meant the midpoint of the concentration-response curve.

This series relates to SARS-CoV-2. Also on record: method as in ref 28 = [28]. The note with it: Vero E6 system; read-out: EC50, SARS-CoV-2 cytopathic effect; cited from earlier work. In general terms: Cytopathic effects are the visible damage that an infection or toxin causes in cultured cells.

For `CN(C)CCCN1c2ccccc2CCc2ccc(Cl)cc21` [clomipramine], the EC50 was 13.6 µM.
